Record: PubChem BioAssay AID743121 (NCATS, 2013)
This is a random part of about 26,000 reagents tested. 167 of them (0.63%) were called active. 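Calls are per gene from RSA p-values that are not deposited; an individual active-marked siRNA can sensitise only weakly.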 Entries without a mark were called inactive. The numbers tell different reagents against one gene apart.

Screen: 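Partners whose loss is lethal together with topoisomerase I blockade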 (primary screen)
System: MDA-MB-231 cells, a human breast cancer line
Knock-down reagent: single siRNA against human genes, 20 nM siRNA (0.8 pmol per well)
Time to read-out: 120 h (drug added 48 h after transfection, read 72 h later)
Conditions: camptothecin 20 nM (about EC30) for 72 h; vehicle 0.1% DMSO in parallel plates
Read-out: 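CellTiter-Glo ATP signal, scaled to control siRNA as percent viability; sensitisation given as log2 of untreated divided by camptothecin-treated viability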
Reading the numbers: log2 vehicle/camptothecin viability: higher = stronger sensitisation to camptothecin; viability with camptothecin and viability without drug: higher = more viable cells
Hit rule: 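Active genes have an RSA gene-level p-value below 0.001, computed from the ratios of their separate siRNAs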

target gene,siRNA no.,log2 vehicle/camptothecin viability,viability with camptothecin (% of control),viability without drug (% of control)
NRXN1,1,-0.537,61.8,42.6
NRXN1,2,-0.17,57.2,50.8
NRXN1,3,0.475,53.8,74.8
NRXN1,4,-0.00571,115,115
MAD1L1,1,0.0375,88.8,91.1
MAD1L1,2,-0.217,108,92.6
MAD1L1,3,-0.308,81.9,66.2
MAD1L1,4,-0.155,70.5,63.3
RIOK3,1,-0.535,86.1,59.4
RIOK3,2,-0.299,118,95.9
RIOK3,3,-0.324,52.1,41.6
RIOK3,4,-0.193,108,94.1
CASP8,1,-0.312,43.2,34.8
CASP8,2,-0.109,74.3,68.9
CASP8,3,-0.654,124,79
CASP8,4,-0.215,122,105
NAA10,1,-0.449,74.3,54.4
NAA10,2,-0.583,81.3,54.3
NAA10,3,-0.475,87.8,63.2
NAA10,4,-0.268,4,3.32
CPVL,1,-0.0779,95.3,90.3
CPVL,2,-0.321,120,96.3
CPVL,3,-0.092,104,97.2
CPVL,4,-0.113,107,98.8
SOS1,1,0.147,79.9,88.5
SOS1,2,0.0383,44.9,46.1
SOS1,3,-0.455,91.1,66.4
GTSE1,1,-0.49,32.3,23
GTSE1,2,-0.504,98.4,69.4
GTSE1,3,-0.421,103,76.6
KCNK16,1,-0.459,47.3,34.4
KCNK16,2,0.0362,99.4,102
KCNK16,3,0.0249,86.5,88
KCNK16,4,-0.327,68.6,54.7
CD300LG,1,-0.494,86.6,61.5
CD300LG,2,-0.0627,85,81.4
CD300LG,3,-0.247,46.8,39.4
CD300LG,4,-0.361,85.8,66.8
GP5,1,-0.26,88.1,73.5
GP5,2,0.154,81.3,90.5
GP5,3,0.573,57.6,85.7
GP5,4,-0.455,52.4,38.2
ANGPT4,1,-0.258,97.2,81.3
ANGPT4,2,-0.31,39.8,32.1
ANGPT4,3,-0.327,108,85.9
ANGPT4,4,0.0115,87.2,87.9
CKM,1,0.545,51.6,75.3
CKM,2,-0.328,68.6,54.6
CKM,3,-0.15,110,99.5
CKM,4,-0.343,90.7,71.5
LIN7B,1,-0.32,93.6,75
LIN7B,2,-0.279,45.7,37.7
LIN7B,3,0.132,53.6,58.7
LIN7B,4,-0.0511,61.7,59.5
JOSD1,1,-0.0189,83.7,82.6
JOSD1,2,0.168,75.5,84.8
JOSD1,3,-0.431,75.2,55.8
JOSD1,4,0.195,59.7,68.4
POLE,1,-0.675,62,38.8
POLE,2,-0.679,35.4,22.1
POLE,3,-0.579,42.9,28.7
POLE,4,-1.12,42.4,19.5
MAEA,1,0.156,62.7,69.9
MAEA,2,-0.626,68.5,44.4
MAEA,3,-0.0739,123,117
CYP4B1,1,-0.0459,98.5,95.5
CYP4B1,2,-0.327,93.6,74.6
CYP4B1,3,-0.0914,99.9,93.7

Reformatted: results already given.
{"target gene":"JOSD1","siRNA no.":1,"log2 vehicle/camptothecin viability":-0.0189,"viability with camptothecin (% of control)":83.7,"viability without drug (% of control)":82.6}
{"target gene":"JOSD1","siRNA no.":2,"log2 vehicle/camptothecin viability":0.168,"viability with camptothecin (% of control)":75.5,"viability without drug (% of control)":84.8}
{"target gene":"JOSD1","siRNA no.":3,"log2 vehicle/camptothecin viability":-0.431,"viability with camptothecin (% of control)":75.2,"viability without drug (% of control)":55.8}
{"target gene":"JOSD1","siRNA no.":4,"log2 vehicle/camptothecin viability":0.195,"viability with camptothecin (% of control)":59.7,"viability without drug (% of control)":68.4}
{"target gene":"POLE","siRNA no.":1,"log2 vehicle/camptothecin viability":-0.675,"viability with camptothecin (% of control)":62,"viability without drug (% of control)":38.8}
{"target gene":"POLE","siRNA no.":2,"log2 vehicle/camptothecin viability":-0.679,"viability with camptothecin (% of control)":35.4,"viability without drug (% of control)":22.1}
{"target gene":"POLE","siRNA no.":3,"log2 vehicle/camptothecin viability":-0.579,"viability with camptothecin (% of control)":42.9,"viability without drug (% of control)":28.7}
